The source of these data is PMC5031922.

Results are given in words; binding and its absence hold for the method and conditions named. In cells and extracts the contact can be indirect. These calls come from enrichment with a bait or labelling near it, and not all partners need be listed. For some assays here: Where a sequence is shown, tags or fusion partners need not be part of it.

In test [1] the target is T1, affinity-tagged G9a (human), Q96KQ7.
T1 chain: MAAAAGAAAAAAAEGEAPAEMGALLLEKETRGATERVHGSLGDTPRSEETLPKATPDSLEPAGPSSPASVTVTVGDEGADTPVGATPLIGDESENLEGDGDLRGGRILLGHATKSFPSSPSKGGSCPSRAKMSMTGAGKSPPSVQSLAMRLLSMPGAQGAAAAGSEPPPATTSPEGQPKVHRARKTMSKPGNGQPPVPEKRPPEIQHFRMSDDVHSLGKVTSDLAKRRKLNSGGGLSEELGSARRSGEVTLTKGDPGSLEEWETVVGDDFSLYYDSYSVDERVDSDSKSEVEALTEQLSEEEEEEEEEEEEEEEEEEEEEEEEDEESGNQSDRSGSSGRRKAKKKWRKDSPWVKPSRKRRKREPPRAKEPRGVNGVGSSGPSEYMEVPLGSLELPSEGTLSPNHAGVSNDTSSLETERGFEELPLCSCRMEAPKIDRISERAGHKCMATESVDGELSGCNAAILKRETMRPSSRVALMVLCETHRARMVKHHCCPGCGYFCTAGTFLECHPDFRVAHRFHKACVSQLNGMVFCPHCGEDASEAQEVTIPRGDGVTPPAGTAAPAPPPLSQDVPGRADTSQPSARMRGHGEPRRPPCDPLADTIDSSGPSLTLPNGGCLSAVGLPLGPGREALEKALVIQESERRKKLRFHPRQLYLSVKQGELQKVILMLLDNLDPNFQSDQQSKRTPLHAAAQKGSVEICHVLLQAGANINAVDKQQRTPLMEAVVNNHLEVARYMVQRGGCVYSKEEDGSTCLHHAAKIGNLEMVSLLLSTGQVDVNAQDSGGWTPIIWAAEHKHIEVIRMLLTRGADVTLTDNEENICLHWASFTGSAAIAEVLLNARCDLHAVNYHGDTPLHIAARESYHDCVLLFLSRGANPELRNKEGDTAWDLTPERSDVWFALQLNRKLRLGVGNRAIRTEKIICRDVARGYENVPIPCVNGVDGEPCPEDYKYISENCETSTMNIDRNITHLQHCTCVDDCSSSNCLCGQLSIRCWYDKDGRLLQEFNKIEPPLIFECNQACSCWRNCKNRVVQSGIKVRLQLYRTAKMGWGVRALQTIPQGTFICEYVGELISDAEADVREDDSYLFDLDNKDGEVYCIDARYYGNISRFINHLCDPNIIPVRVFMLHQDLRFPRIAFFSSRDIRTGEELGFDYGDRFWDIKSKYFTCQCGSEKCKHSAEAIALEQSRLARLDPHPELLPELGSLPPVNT
Nature of the test: affinity purification with mass spectrometry; stable lentivirus-based expression of epitope-tagged bait in HEK293; replicate two-step enrichment from cell lysates. The conditions noted are these: remark: other sources report otherwise.

Test [2] addresses affinity-tagged G9a (human) (UniProt Q96KQ7). The description is as above.

B1: GLP, Q9H9B1 1-1298 (enzyme)
chain: MAAADAEAVPARGEPQQDCCVKTELLGEETPMAADEGSAEKQAGEAHMAADGETNGSCENSDASSHANAAKHTQDSARVNPQDGTNTLTRIAENGVSERDSEAAKQNHVTADDFVQTSVIGSNGYILNKPALQAQPLRTTSTLASSLPGHAAKTLPGGAGKGRTPSAFPQTPAAPPATLGEGSADTEDRKLPAPGADVKVHRARKTMPKSVVGLHAASKDPREVREARDHKEPKEEINKNISDFGRQQLLPPFPSLHQSLPQNQCYMATTKSQTACLPFVLAAAVSRKKKRRMGTYSLVPKKKTKVLKQRTVIEMFKSITHSTVGSKGEKDLGASSLHVNGESLEMDSDEDDSEELEEDDGHGAEQAAAFPTEDSRTSKESMSEADRAQKMDGESEEEQESVDTGEEEEGGDESDLSSESSIKKKFLKRKGKTDSPWIKPARKRRRRSRKKPSGALGSESYKSSAGSAEQTAPGDSTGYMEVSLDSLDLRVKGILSSQAEGLANGPDVLETDGLQEVPLCSCRMETPKSREITTLANNQCMATESVDHELGRCTNSVVKYELMRPSNKAPLLVLCEDHRGRMVKHQCCPGCGYFCTAGNFMECQPESSISHRFHKDCASRVNNASYCPHCGEESSKAKEVTIAKADTTSTVTPVPGQEKGSALEGRADTTTGSAAGPPLSEDDKLQGAASHVPEGFDPTGPAGLGRPTPGLSQGPGKETLESALIALDSEKPKKLRFHPKQLYFSARQGELQKVLLMLVDGIDPNFKMEHQNKRSPLHAAAEAGHVDICHMLVQAGANIDTCSEDQRTPLMEAAENNHLEAVKYLIKAGALVDPKDAEGSTCLHLAAKKGHYEVVQYLLSNGQMDVNCQDDGGWTPMIWATEYKHVDLVKLLLSKGSDINIRDNEENICLHWAAFSGCVDIAEILLAAKCDLHAVNIHGDSPLHIAARENRYDCVVLFLSRDSDVTLKNKEGETPLQCASLNSQVWSALQMSKALQDSAPDRPSPVERIVSRDIARGYERIPIPCVNAVDSEPCPSNYKYVSQNCVTSPMNIDRNITHLQYCVCIDDCSSSNCMCGQLSMRCWYDKDGRLLPEFNMAEPPLIFECNHACSCWRNCRNRVVQNGLRARLQLYRTRDMGWGVRSLQDIPPGTFVCEYVGELISDSEADVREEDSYLFDLDNKDGEVYCIDARFYGNVSRFINHHCEPNLVPVRVFMAHQDLRFPRIAFFSTRLIEAGEQLGFDYGERFWDIKGKLFSCRCGSPKCRHSSAALAQRQASAAQEAQEDGLPDTSSAAAADPL
Turning to B1, the binding result in test [1] is listed as “binds”.

B2: ZNF644 (endogenous) (protein, UniProt Q9H582 1-1327)
chain: MRSFLQQDVNKTKSRLNVLNGLANNMDDLKINTDITGAKEELLDDNNFISDKESGVHKPKDCQTSFQKNNTLTLPEELSKDKSENALSGGQSSLFIHAGAPTVSSENFILPKGAAVNGPVSHSSLTKTSNMNKGSVSLTTGQPVDQPTTESCSTLKVAADLQLSTPQKASQHQVLFLLSDVAHAKNPTHSNKKLPTSASVGCDIQNSVGSNIKSDGTLINQVEVGEDGEDLLVKDDCVNTVTGISSGTDGFRSENDTNWDPQKEFIQFLMTNEETVDKAPPHSKIGLEKKRKRKMDVSKITRYTEDCFSDSNCVPNKSKMQEVDFLEQNEELQAVDSQKYALSKVKPESTDEDLESVDAFQHLIYNPDKCGEESSPVHTSTFLSNTLKKKCEESDSESPATFSTEEPSFYPCTKCNVNFREKKHLHRHMMYHLDGNSHFRHLNVPRPYACRECGRTFRDRNSLLKHMIIHQERRQKLMEEIRELKELQDEGRSARLQCPQCVFGTNCPKTFVQHAKTHEKDKRYYCCEECNFMAVTENELECHRGIAHGAVVKCPMVTSDIAQRKTQKKTFMKDSVVGSSKKSATYICKMCPFTTSAKSVLKKHTEYLHSSSCVDSFGSPLGLDKRKNDILEEPVDSDSTKTLTKQQSTTFPKNSALKQDVKRTFGSTSQSSSFSKIHKRPHRIQKARKSIAQSGVNMCNQNSSPHKNVTIKSSVDQKPKYFHQAAKEKSNAKANSHYLYRHKYENYRMIKKSGESYPVHFKKEEASSLNSLHLFSSSSNSHNNFISDPHKPDAKRPESFKDHRRVAVKRVIKESKKESSVGGEDLDSYPDFLHKMTVVVLQKLNSAEKKDSYETEDESSWDNVELGDYTTQAIEDETYSDINQEHVNLFPLFKSKVEGQEPGENATLSYDQNDGFYFEYYEDTGSNNFLHEIHDPQHLETADASLSKHSSVFHWTDLSLEKKSCPYCPATFETGVGLSNHVRGHLHRAGLSYEARHVVSPEQIATSDKMQHFKRTGTGTPVKRVRKAIEKSETTSEHTCQLCGGWFDTKIGLSNHVRGHLKRLGKTKWDAHKSPICVLNEMMQNEEKYEKILKALNSRRIIPRPFVAQKLASSDDFISQNVIPLEAYRNGLKTEALSVSASEEEGLNFLNEYDETKPELPSGKKNQSLTLIELLKNKRMGEERNSAISPQKIHNQTARKRFVQKCVLPLNEDSPLMYQPQKMDLTMHSALDCKQKKSRSRSGSKKKMLTLPHGADEVYILRCRFCGLVFRGPLSVQEDWIKHLQRHIVNANLPRTGAGMVEVTSLLKKPASITETSFSLLMAEAAS
For the molecule B2, the binding entry in test [2] is reported as “binds”.
